# Assay results: publication PMC7819943, “Rice protein-binding microarrays: a tool to detect cis-acting elements near promoter regions in rice”
# Amino acid sequences for entries named in this document (tags omitted).
# UniProt Q0JBA9, entry or part of it: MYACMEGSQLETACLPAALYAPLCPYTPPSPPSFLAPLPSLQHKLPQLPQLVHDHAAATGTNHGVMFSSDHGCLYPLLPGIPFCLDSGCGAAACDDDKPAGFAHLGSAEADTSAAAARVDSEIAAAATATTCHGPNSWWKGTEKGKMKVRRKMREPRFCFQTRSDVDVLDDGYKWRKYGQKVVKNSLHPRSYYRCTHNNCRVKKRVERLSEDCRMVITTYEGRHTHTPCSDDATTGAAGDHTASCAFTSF
# Some of the results follow.
# Biological target: OsWRKY34 (Oryza sativa, UniProt Q0JBA9 1-250)
# Test: protein-binding microarray (RPBM); PBS, 2% BSA, 51.3 ng/ul salmon testes DNA, 50 uM zinc acetate, 200 nM TF, 25 C, 1 h; high values mean tight binding
# Settings: protein: recombinant; tags: N-terminal polyhistidine and DsRed monomer fusion (pET32a); label: CyDye5-dUTP incorporated in the synthesized complementary strand; 3' TTTTT single-stranded linker to array surface; dsDNA, one strand shown
# Outline: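 Using Ni–NTA, transcription factors fused N-terminally to polyhistidine and DsRed were purified after expression in E. coli BL21-CodonPlus. These were incubated at 200 nM with a blocked, double-stranded custom Agilent array for 1 h at 25 °C in a buffer containing 50 µM zinc acetate, and the array was washed. The binding signal is per-feature fluorescence intensity (arbitrary units) on an Axon 4000B scanner.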
row,Sequence,binding signal
1,AATCTGTGTAATTGTTTTTTTTTCTGTCTACACTTAATACCGGAGTCACCTAGTGCAG,9020 fluorescence intensity (a.u.)
2,TTCGCTGGCAATGGTTCTCTTCTCTGCATCCAGATCCATCCGGAGTCACCTAGTGCAG,8210 fluorescence intensity (a.u.)
3,TTCAAACAAGATGAATAGTCAACGTTGGATATAAAAACCTCGGAGTCACCTAGTGCAG,11600 fluorescence intensity (a.u.)
4,GCTTTGTCCTCTCTATCCGCGACGCCTAGTTCGTCAGTTCCGGAGTCACCTAGTGCAG,9170 fluorescence intensity (a.u.)
5,AGAGAGATGGGGAGAGGCGGGGTGAGAGAGAAGCGCACGGCGGAGTCACCTAGTGCAG,8820 fluorescence intensity (a.u.)
6,AAAGTTGTTTTACACGTAACGTCAGCGCCCGATTTTTGAACGGAGTCACCTAGTGCAG,10200 fluorescence intensity (a.u.)
7,CTCTCTTCTCCTCTCCCGCCGCCGCCGCCGCCGCACCCGCCGGAGTCACCTAGTGCAG,8700 fluorescence intensity (a.u.)
8,CACACACACTCCACTACTCCACTGCACTGCAGTCTCTCTCCGGAGTCACCTAGTGCAG,10100 fluorescence intensity (a.u.)
9,AGATACATACCCACACCTTTTATTCAGCCTTATCTTTTTCCGGAGTCACCTAGTGCAG,8660 fluorescence intensity (a.u.)
10,AAATCCTGGGCCCGCTGTGTTCGTTGGTAGTTGTGATTCGCGGAGTCACCTAGTGCAG,8680 fluorescence intensity (a.u.)
11,GTGTCGCCATATTTTTTTAAAAAAAGTTAGCATGTATTTACGGAGTCACCTAGTGCAG,9100 fluorescence intensity (a.u.)
12,TAGTCTCCTCCAATCCCCGAATTGTTCATCGTCTGTCGTCCGGAGTCACCTAGTGCAG,10000 fluorescence intensity (a.u.)
13,ATGGCTCTGCGCTCTCTTTCATCTTCTCTACGTGTCAGCTCGGAGTCACCTAGTGCAG,8100 fluorescence intensity (a.u.)
14,GCAGCAGATAGGAACACATACAGGGAATTAAGCTTCTAGCCGGAGTCACCTAGTGCAG,8860 fluorescence intensity (a.u.)
15,GGGTTACTTTCTCGCGTCACAAATTTTAGCCCTTCTTCTTCGGAGTCACCTAGTGCAG,8970 fluorescence intensity (a.u.)
16,GGCCTAATACTCGCACGCACGCATTCCCATGCTGCCCACACGGAGTCACCTAGTGCAG,8300 fluorescence intensity (a.u.)
17,GATGCCGAGAAAACCCCAATCGTTTACATGCCGGCGACTCCGGAGTCACCTAGTGCAG,9770 fluorescence intensity (a.u.)
18,CAGGGTTTCTTGGGTTTTGATTAATTGTAAGTTTAACTATCGGAGTCACCTAGTGCAG,11100 fluorescence intensity (a.u.)
19,CCATCGAATCCAATTCCATAGCTCGCACTTTTTCTATTCTCGGAGTCACCTAGTGCAG,9220 fluorescence intensity (a.u.)
20,ATAGTCCCAGGCCTATAATCTTTTTTTTTCTTGCTATATCCGGAGTCACCTAGTGCAG,8600 fluorescence intensity (a.u.)
21,ACTGTATATATATATATGTGTGTGTGTGTTTAGATTCATTCGGAGTCACCTAGTGCAG,8530 fluorescence intensity (a.u.)
22,TCGTTTCCACCACTCCGCTCTCTCCCCTCCTTATCCCCGTCGGAGTCACCTAGTGCAG,10300 fluorescence intensity (a.u.)
23,GGTTTAGGATTGGGTAATTTGGTTGGTGAGTTCACCCAAGCGGAGTCACCTAGTGCAG,10900 fluorescence intensity (a.u.)
24,CCGCTTTCCGGCCCTCGACCGCCCGTAGCCGCCGCTCCAGCGGAGTCACCTAGTGCAG,8500 fluorescence intensity (a.u.)
25,GACGACGCCACCTCCACCTTCACCTGCAACCACACCGATTCGGAGTCACCTAGTGCAG,9120 fluorescence intensity (a.u.)
26,ACATATTTTACTCGTGGTTTCCATTAGTATACTTTTCAAACGGAGTCACCTAGTGCAG,9560 fluorescence intensity (a.u.)
27,TTTCCTTTTTCGTTTTTTCGCAAGCGCGCCCGCCTTCAAACGGAGTCACCTAGTGCAG,9440 fluorescence intensity (a.u.)

# Reformatted with bars between the fields: part of the list above.
row | Sequence | binding signal
2 | TTCGCTGGCAATGGTTCTCTTCTCTGCATCCAGATCCATCCGGAGTCACCTAGTGCAG | 8210 fluorescence intensity (a.u.)
5 | AGAGAGATGGGGAGAGGCGGGGTGAGAGAGAAGCGCACGGCGGAGTCACCTAGTGCAG | 8820 fluorescence intensity (a.u.)
15 | GGGTTACTTTCTCGCGTCACAAATTTTAGCCCTTCTTCTTCGGAGTCACCTAGTGCAG | 8970 fluorescence intensity (a.u.)
19 | CCATCGAATCCAATTCCATAGCTCGCACTTTTTCTATTCTCGGAGTCACCTAGTGCAG | 9220 fluorescence intensity (a.u.)

# (next part)

row,Sequence,binding signal
1,ACTCCGTACTACTGCTACTATTTTTGTCCTGTTCAGATAACGGAGTCACCTAGTGCAG,12100 fluorescence intensity (a.u.)
2,AAGGGCATTACATTTCACGTGATTTTTCTCTCATCTTCAACGGAGTCACCTAGTGCAG,12200 fluorescence intensity (a.u.)
3,GCTCCGCACTATCCTCCTCAAGTTTTGGTTGAATCGATCTCGGAGTCACCTAGTGCAG,8820 fluorescence intensity (a.u.)
4,GAAATAAGCCAAACGATGGGACCTACTTTTCGTCCCTTAACGGAGTCACCTAGTGCAG,8310 fluorescence intensity (a.u.)
5,TCTCTCACCTTTTCTTCTCAATCCGAGCAAGACGGCCGGCCGGAGTCACCTAGTGCAG,8420 fluorescence intensity (a.u.)
6,AGCCATTGCCACACACACACCGACCGGTGCTGTCGTGCTTCGGAGTCACCTAGTGCAG,8960 fluorescence intensity (a.u.)
7,ATCTATTGCTCCCTGCTCTGGTTACTTGCAATACACTAGTCGGAGTCACCTAGTGCAG,9060 fluorescence intensity (a.u.)
8,CAATTCCTCGTCTTCCAATCGCTGACTTCTATTCCCTGCTCGGAGTCACCTAGTGCAG,8470 fluorescence intensity (a.u.)
9,AATTTCGTCTTAAAAAAATATTTTGAGGATGTCTCTCTCTCGGAGTCACCTAGTGCAG,8400 fluorescence intensity (a.u.)
10,TACTGGCTTCACTTCTGTCTATATTCTTTCACATTTACATCGGAGTCACCTAGTGCAG,8580 fluorescence intensity (a.u.)
11,ATCTCAATCTTATCGATGTATTACCACACTGGGAGCTACACGGAGTCACCTAGTGCAG,8680 fluorescence intensity (a.u.)
12,GCTTTGCTGTTCTTTGCTTTGGTTCGGGGATCCGATTTCCCGGAGTCACCTAGTGCAG,9290 fluorescence intensity (a.u.)
13,GGTGGAGGGTAATACGGTCATTTCAACACTCTGCCACCCTCGGAGTCACCTAGTGCAG,8690 fluorescence intensity (a.u.)
14,GTTTTGTTTTGGTTGACCTTCACTTTCCATTTGCGACGATCGGAGTCACCTAGTGCAG,8260 fluorescence intensity (a.u.)
15,ACCTCGTGGCCACTGTTGCATGGTCAACTTTCCCACCCATCGGAGTCACCTAGTGCAG,12700 fluorescence intensity (a.u.)
16,CTAGCTCTATCTCTTCTGTAGCACCGTTTCAACTCTACCACGGAGTCACCTAGTGCAG,8280 fluorescence intensity (a.u.)
17,CACCATTTTCCTTACTGTAGATCACTTGGTGTTGTGCATTCGGAGTCACCTAGTGCAG,11700 fluorescence intensity (a.u.)
18,GTCGACGAGCTTCTCCTGGCCCTTTTTATCTGAGTTTTGTCGGAGTCACCTAGTGCAG,9720 fluorescence intensity (a.u.)
19,AATTTCTTTTGTTCTCAAGTCAGTTGGAAGCACCTTTTATCGGAGTCACCTAGTGCAG,8530 fluorescence intensity (a.u.)
20,TTGTCAATCCAACCTGCATCTATGCCCATGCGTGTGTTCTCGGAGTCACCTAGTGCAG,8130 fluorescence intensity (a.u.)
21,GCTCCGTGCTCTGCGCCTCCAAACGCGCGCGCCATTTTTCCGGAGTCACCTAGTGCAG,10200 fluorescence intensity (a.u.)
22,ACCCCGCCGATCAGAGCTCTCCTGTGCCCATATCCTGTTGCGGAGTCACCTAGTGCAG,14900 fluorescence intensity (a.u.)
23,TTACGCTCACTTTACAATTTCTACACTTGCTAATTTTAATCGGAGTCACCTAGTGCAG,8040 fluorescence intensity (a.u.)
24,ATCTGTCAGTGCCACATCACCACCACACAACCGCAAAGAACGGAGTCACCTAGTGCAG,9250 fluorescence intensity (a.u.)
25,GGTTTGGTGGTTGGTTTTCGGGTTCTGACTAGGGTTTGGTCGGAGTCACCTAGTGCAG,14000 fluorescence intensity (a.u.)
26,ATAACATATTTATTTACTTAGTATATCTTACTGATTTTAGCGGAGTCACCTAGTGCAG,8040 fluorescence intensity (a.u.)
27,GATTCGATTCGACTCGACTCTCCCGCCTGATTCTTTTTTTCGGAGTCACCTAGTGCAG,8130 fluorescence intensity (a.u.)
